This passage reports AC50 results from PubChem BioAssay AID493014 (National Center for Advancing Translational Sciences (NCATS), 2011).

The experiment is described as follows: qHTS Assay to Find Inhibitors of Chronic Active B-Cell Receptor Signaling. Particulars: ABC-DLBCL IkBa-CBG/CBR reporter, luminescence ratio (green luciferase fused to IkBa over red control in TMD8 lymphoma cells), 4 h. A digest of the protocol: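 TMD8 ABC-DLBCL cells carrying doxycycline-inducible green luciferase fused to IkappaBalpha plus unfused red luciferase were exposed to compounds (up to 46 uM) for 4 hrs at 37C. Activity came from the overlap-corrected green/red luminescence ratio.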

Setting [1] is: measured here: CBR red luminescence, cell number.
Setting [2] is: measured here: IkBa-CBG green luminescence.

The list shows a part of the results. These are further read-outs of the screen, such as a control signal, another cell line or another target. No call is given for them. Compounds called inactive in the main read-out are mostly missing here. The note in brackets gives the kind of curve behind each potency; many fits are weak.

Turning to `Cc1[nH]c2ccccc2c1/C=N/Nc1ccccn1`, the concentration at half-maximal activity (AC50) under setting [1] is 14.1 µM [falling, single point].

Take `C=CCNC(=S)N/N=C/c1ccc(C)cc1C`: the AC50 is 14.1 µM [falling, partial curve, poor fit] under setting [1] and 15.8 µM [falling, partial curve] under setting [2].

With `Nc1c(C(=O)c2cccs2)sc2nsc(SCCN3CCCCC3)c12`, under setting [1], the AC50 is 2.82 µM [falling, partial curve, poor fit].

`O=c1c(Cc2ccc(F)cc2)c(O)ccn1C1CCCCC1`: the AC50 under setting [1] is 1.3 µM [rising, partial curve].

For the compound `O=C(CCN1C(=O)S/C(=C\c2ccccc2)C1=O)Nc1ccc(S(=O)(=O)Nc2nccs2)cc1`, under setting [1], the concentration at half-maximal activity (AC50) is 14.1 µM [falling, single point].

`Nc1nonc1C(=O)N/N=C/c1cc(Br)ccc1O`: the AC50 under setting [1] is 4.47 µM [rising, single point].

Take `C=CCC[C@@H](Cc1ccc(F)cc1)C(=O)OC[C@@H](NC(=O)[C@@H](CC=C)CC(=O)N[C@H](CO)Cc1ccccc1)C(C)(C)C`: under setting [1], the half-maximal activity concentration (AC50) is 14.6 µM [falling, partial curve].

Take `CCOCCc1nn2c(=O)cc(CSCC(=O)Nc3ccc(OC)cc3)nc2s1`: under setting [1], the concentration at half-maximal activity (AC50) is 3.16 µM [rising, partial curve, poor fit].

For `O=C(Nc1ccccc1CC[N+](=O)[O-])N1CCN(c2ccccc2)CC1`, the AC50 under setting [1] is 11.2 µM [falling, partial curve, poor fit].

For `N/C(=N\OC(=O)COc1ccc(Cl)cc1Br)c1cccnc1`, under setting [1], the AC50 was 1.41 µM [rising, full curve, poor fit].

`COc1cc(C(=S)N2CCN(c3ccccc3Cl)CC2)cc(O)c1O`: the AC50 under setting [1] is 11.2 µM [falling, partial curve, poor fit].

For the compound `CCCOc1ccc(/C=C/C(=O)N2CCOCC2)cc1`, under setting [1], the AC50 was 1.58 µM [rising, full curve].

Consider `COc1cc(OC)cc(C(=O)Nc2cc(C)on2)c1`, for which, under setting [1], the AC50 is 22.4 µM [falling, single point].

For `Cc1cccc(C(=O)OCC(=O)NCc2ccc3c(c2)OCO3)c1C`, the concentration at half-maximal activity (AC50) under setting [1] was 5.8 µM [falling, single point].

On to `CO/N=C/CC(=O)c1cnc(-c2ccccc2)s1`, for which the AC50 under setting [1] is 15.8 µM [rising, single point].

In the case of `O=C(CSCc1cccc(F)c1)N1CCN(c2ccccc2)CC1`, the concentration at half-maximal activity (AC50) under setting [1] was 1.46 µM [rising, full curve, poor fit].

With `COC(=O)c1sc(NC(=O)c2oc3ccccc3c2C)nc1C`, the concentration at half-maximal activity (AC50) under setting [1] is 10.3 µM [falling, partial curve, poor fit].

Regarding `Cc1[nH][nH]c(=O)c1C(c1ccc(-c2ccc(Cl)c(Cl)c2)o1)c1c(C)[nH][nH]c1=O`, the AC50 under setting [1] is 23.1 µM [falling, single point].

Turning to `O=C(OCC(=O)N1CCCCC1)c1c[nH]c2ccccc12`, the AC50 under setting [1] was 9.2 µM [falling, partial curve].

As to `CCOC(=O)/C=C/C(=O)Nc1ccc(-c2nnc3n2CCCCC3)cc1`, the concentration at half-maximal activity (AC50) under setting [1] is 11.2 µM [falling, partial curve].

As to `CCC(=O)NC(Nc1cccc(C)n1)(C(F)(F)F)C(F)(F)F`, under setting [1], the AC50 was 29.1 µM [falling, single point].

`N#Cc1cnc(SCC(=O)NNC(=O)COc2cccc3ccccc23)nc1N`: the AC50 under setting [1] was 18.4 µM [rising, partial curve, poor fit].

`O=C(Nc1nnc(C2CC2)s1)C1COc2ccccc2O1` (stereo not given): the half-maximal activity concentration (AC50) under setting [1] is 11.2 µM [falling, single point].

With `Cc1cccc(-n2nnnc2SCC(=O)c2cc(C)n(Cc3ccco3)c2C)c1`, the AC50 under setting [1] was 35.5 µM [rising, single point].

Consider `COc1ccc(N(C(C)C(=O)NC2CCCCCC2)S(C)(=O)=O)cc1` (stereo not given), for which the concentration at half-maximal activity (AC50) under setting [1] is 14.6 µM [falling, single point].

Regarding `Cc1ccc(C(OCCN(C)C)c2cccc(C(F)(F)F)c2)cc1` (stereo not given), the AC50 under setting [1] was 32.6 µM [falling, single point].

As to `O=C1NC(CCc2ccccc2)C(=O)N1CCOc1ccccc1` (stereo not given), the half-maximal activity concentration (AC50) under setting [1] was 8.91 µM [rising, partial curve, poor fit].

Regarding `CNCCCOc1ccc(Cl)cc1C(C)(C)C`, the AC50 under setting [1] is 11.2 µM [falling, partial curve, poor fit].

For `O=C(Nc1cccc(F)c1)c1cc(S(=O)(=O)N2CCOCC2)ccc1N1CCCC1`, the half-maximal activity concentration (AC50) under setting [1] is 32.6 µM [falling, partial curve, poor fit].

Regarding `COc1ccc(CN2CCN(C(=O)c3cccs3)CC2)cc1Br`, the AC50 under setting [1] is 0.631 µM [rising, full curve, poor fit].

Turning to `O=C(CCN1CCOCC1)NNC(=S)NC(=O)c1ccc(Br)cc1`, the concentration at half-maximal activity (AC50) under setting [1] is 35.5 µM [falling, single point].

As to `CCCNc1nc2c(c(=O)n(C)c(=O)n2C)n1Cc1ccc(F)cc1`, the AC50 under setting [1] was 20.6 µM [falling, single point].

For `O=C(Nc1ccc(N2CCN(C(=O)c3ccco3)CC2)cc1)c1ccccc1Br`, the AC50 under setting [1] is 25.1 µM [falling, single point].

`CC(=O)Nc1ccc(S(=O)(=O)N2CCN(CCCOc3ccccc3Cl)CC2)cc1`: the concentration at half-maximal activity (AC50) under setting [1] was 10.3 µM [falling, partial curve, poor fit].

On to `COc1ccc(C(CNC(=O)Cc2ccccc2Cl)N2CCCCC2)cc1` (stereo not given), for which the AC50 under setting [1] is 1.41 µM [rising, full curve, poor fit].

For `O=C(OCc1csc(-c2ccccc2)n1)c1cccs1`, the half-maximal activity concentration (AC50) under setting [1] is 12.6 µM [falling, single point].

Turning to `CCn1cc(/C=C(\NC(=O)c2ccccc2F)C(=O)NCCCn2ccnc2)c2ccccc21`, the concentration at half-maximal activity (AC50) under setting [1] is 31.6 µM [falling, partial curve, poor fit].

As for `Cc1cccc(NC(=O)c2c(-c3ccccc3)noc2C)n1`, under setting [1], the AC50 was 22.4 µM [rising, partial curve, poor fit].

Consider `CC(C)OC(=O)c1cn(-c2ccccc2)nc1-c1ccco1`, for which the AC50 under setting [1] was 29.1 µM [falling, single point].

On to `Cc1ccc(OCCC(=O)OCC(=O)Nc2ccccc2)cc1`, for which the AC50 under setting [1] was 31.6 µM [falling, single point].

With `Cn1c(=O)c(=O)n(C)c2cc(S(=O)(=O)CCC(=O)NCc3ccccc3)ccc21`, the AC50 under setting [1] was 3.55 µM [rising, partial curve, poor fit].

`Cc1[nH]nc(SCC(=O)NCC(C)C)c1[N+](=O)[O-]`: the half-maximal activity concentration (AC50) under setting [1] is 17.8 µM [falling, single point].

On to `CC1(C)Cc2c(c(N3CCOCC3)nc3sc4c(NCCN5CCOCC5)nnnc4c23)CS1`, for which the AC50 under setting [1] is 0.891 µM [rising, full curve, poor fit].

Take `O=C(Nc1ccc(N2CCN(C(=O)c3cccs3)CC2)c(Cl)c1)c1cccnc1`: under setting [1], the AC50 was 15.8 µM [falling, single point].

On to `COc1cccc(NC(=O)c2oc3ccccc3c2NC(=O)c2ccc3c(c2)OCO3)c1`, for which, under setting [1], the AC50 is 2.82 µM [falling, full curve, poor fit].

Take `Cc1ccnc(NC(=O)C2CC(=O)N(c3ccc4c(c3)OCCO4)C2)c1` (stereo not given): under setting [1], the AC50 was 35.5 µM [falling, single point].

As for `CCOC(=O)c1cnn(-c2nc(SC)nc3sc4c(c23)CCCC4)c1N`, the AC50 under setting [1] is 18.4 µM [rising, single point].

As to `Cc1cccc(OCCOC(=O)C2CCN(S(=O)(=O)c3ccc(C)c(C)c3)CC2)c1`, the AC50 under setting [1] is 7.08 µM [rising, partial curve, poor fit].

On to `O=C(NCc1ccco1)c1cc(NS(=O)(=O)c2cccc([N+](=O)[O-])c2)ccc1O`, for which, under setting [1], the AC50 was 3.55 µM [falling, full curve].

As to `C=C(C)CSc1nc(N)cc(=O)[nH]1`, under setting [1], the AC50 was 35.5 µM [rising, partial curve, poor fit].

Regarding `O=C(Oc1c(-c2ccco2)oc2ccccc2c1=O)c1cccnc1`, under setting [1], the AC50 is 4.47 µM [falling, partial curve, poor fit].

As to `O=C(Cn1c(=O)n(CC2CCCO2)c(=O)c2ccccc21)N1CCN(c2ccccc2)CC1` (stereo not given), the half-maximal activity concentration (AC50) under setting [1] was 16.4 µM [rising, single point].

Consider `COc1cccc(-c2noc(-c3cccnc3)n2)c1`, for which, under setting [1], the AC50 is 35.5 µM [falling, single point].

Consider `Cc1cccc(C)c1N(CC(=O)N/N=C/c1cc(Br)c(C)o1)S(C)(=O)=O`, for which the half-maximal activity concentration (AC50) under setting [2] was 5.8 µM [rising, full curve, poor fit].

For the compound `Cc1cc(Nc2ccc3c(c2)OCCO3)n2nc(C)nc2n1`, the AC50 under setting [1] was 0.58 µM [falling, partial curve, poor fit].

Regarding `COc1cccc(-c2nn(-c3ccc(C)cc3)cc2C(=O)N(C)CC(=O)Nc2cccc(F)c2)c1`, the AC50 under setting [1] is 29.1 µM [rising, single point].

Turning to `O=[N+]([O-])c1ccc(Oc2ccc(S(=O)(=O)N3CCOCC3)cn2)cc1`, the AC50 under setting [1] is 6.51 µM [rising, partial curve, poor fit].

Regarding `Cn1c(N=NC(=O)c2ccccc2)c(O)c2ccccc21`, the half-maximal activity concentration (AC50) under setting [1] was 13 µM [falling, partial curve].

For the compound `CCCCOC(=O)CNc1nnc(SCC(=O)OCC)[nH]c1=O`, the concentration at half-maximal activity (AC50) by setting is: under setting [1], 29.1 µM [rising, single point]; under setting [2], 29.1 µM [falling, single point].

Regarding `COc1ccc(N(C)S(=O)(=O)c2cccc(C(=O)Nc3ccc4c(c3)OCCO4)c2)cc1`, the half-maximal activity concentration (AC50) under setting [1] was 35.5 µM [falling, single point].

For the compound `Cc1cccc(NC(=O)C2CCN(S(=O)(=O)c3c(C)noc3/C=C/c3ccco3)CC2)n1`, under setting [1], the AC50 is 16.4 µM [falling, single point].

As for `CC(C)c1ccc(C2N3CC4([N+](=O)[O-])CN2CC([N+](=O)[O-])(C3)C4(C)C)cc1` (stereo not given), the concentration at half-maximal activity (AC50) under setting [1] was 18.4 µM [rising, partial curve, poor fit].

For the compound `O=C(NC1CCCC1)C(c1ccc(F)cc1)N(Cc1ccc(F)cc1)C(=O)CCl` (stereo not given), the concentration at half-maximal activity (AC50) under setting [1] was 6.51 µM [falling, partial curve].
